Our source for the binding values is PMC9016969.

Results are given in words; binding and its absence hold for the method and conditions named. In cells and extracts the contact can be indirect. Binding calls can cover weak binding; strength is not graded here. Tags and fused reporters may be left off the sequences shown.

The test has as its target GST-mTET2 (Mus musculus). The test is described as follows: pull-down; GST fusion proteins pre-bound to glutathione-Sepharose beads (50 mM Tris HCl pH 8.0, 150 mM NaCl, 5 mM EDTA, 1% Triton X-100, 1 mM DTT), incubated 1 h at 4 °C with whole cell lysate of transfected COS-1 cells; washed 3 x in KAc interaction buffer; immunoblot; only the target purified. Background: A western blot detects proteins with antibodies after separation by electrophoresis.

B1: FOXA1-V5 (protein, UniProt P55317-1 1-472)
chain: MLGTVKMEGHETSDWNSYYADTQEAYSSVPVSNMNSGLGSMNSMNTYMTMNTMTTSGNMTPASFNMSYANPGLGAGLSPGAVAGMPGGSAGAMNSMTAAGVTAMGTALSPSGMGAMGAQQAASMNGLGPYAAAMNPCMSPMAYAPSNLGRSRAGGGGDAKTFKRSYPHAKPPYSYISLITMAIQQAPSKMLTLSEIYQWIMDLFPYYRQNQQRWQNSIRHSLSFNDCFVKVARSPDKPGKGSYWTLHPDSGNMFENGCYLRRQKRFKCEKQPGAGGGGGSGSGGSGAKGGPESRKDPSGASNPSADSPLHRGVHGKTGQLEGAPAPGPAASPQTLDHSGATATGGASELKTPASSTAPPISSGPGALASVPASHPAHGLAPHESQLHLKGDPHYSFNHPFSINNLMSSSEQQHKLDFKAYEQALQYSPYGSTLPASLPLGSASVTTRSPIEPSALEPAYYQGVYSRPVLNTS
For the molecule B1, the binding result is listed as “binds”.
